{
  "sequences": {"note": "Protein sequences, listed by entry. Tags and fused reporters are not part of them. Lines headed by an entry give the natural chain unless they say otherwise; changes in a name come on top.", "UniProt P06756": "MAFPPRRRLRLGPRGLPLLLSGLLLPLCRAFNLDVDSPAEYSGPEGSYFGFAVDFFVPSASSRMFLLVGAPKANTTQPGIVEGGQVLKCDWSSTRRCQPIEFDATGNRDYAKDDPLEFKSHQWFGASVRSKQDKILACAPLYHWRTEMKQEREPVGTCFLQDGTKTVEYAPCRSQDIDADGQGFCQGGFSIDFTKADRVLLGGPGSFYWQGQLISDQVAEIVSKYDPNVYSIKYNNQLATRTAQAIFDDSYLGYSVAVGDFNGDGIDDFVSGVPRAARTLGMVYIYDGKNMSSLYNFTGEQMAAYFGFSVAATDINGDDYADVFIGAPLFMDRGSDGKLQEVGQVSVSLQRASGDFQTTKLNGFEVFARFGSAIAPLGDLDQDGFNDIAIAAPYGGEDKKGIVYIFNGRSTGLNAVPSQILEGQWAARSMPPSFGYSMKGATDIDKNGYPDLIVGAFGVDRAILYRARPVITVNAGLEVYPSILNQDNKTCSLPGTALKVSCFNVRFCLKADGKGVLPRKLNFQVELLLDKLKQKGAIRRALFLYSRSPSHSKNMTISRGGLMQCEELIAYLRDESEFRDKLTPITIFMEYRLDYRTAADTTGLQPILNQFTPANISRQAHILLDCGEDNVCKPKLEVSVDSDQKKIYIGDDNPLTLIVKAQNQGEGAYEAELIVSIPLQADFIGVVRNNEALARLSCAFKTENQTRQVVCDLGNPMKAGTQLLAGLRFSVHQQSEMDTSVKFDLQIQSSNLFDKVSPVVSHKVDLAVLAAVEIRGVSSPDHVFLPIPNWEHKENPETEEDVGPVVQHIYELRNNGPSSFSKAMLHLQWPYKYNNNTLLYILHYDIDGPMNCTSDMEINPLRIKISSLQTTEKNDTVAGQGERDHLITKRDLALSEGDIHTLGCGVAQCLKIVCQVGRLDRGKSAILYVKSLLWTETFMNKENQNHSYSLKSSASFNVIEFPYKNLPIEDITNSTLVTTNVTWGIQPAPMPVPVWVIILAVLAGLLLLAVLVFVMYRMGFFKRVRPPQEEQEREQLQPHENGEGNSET", "UniProt P43121": "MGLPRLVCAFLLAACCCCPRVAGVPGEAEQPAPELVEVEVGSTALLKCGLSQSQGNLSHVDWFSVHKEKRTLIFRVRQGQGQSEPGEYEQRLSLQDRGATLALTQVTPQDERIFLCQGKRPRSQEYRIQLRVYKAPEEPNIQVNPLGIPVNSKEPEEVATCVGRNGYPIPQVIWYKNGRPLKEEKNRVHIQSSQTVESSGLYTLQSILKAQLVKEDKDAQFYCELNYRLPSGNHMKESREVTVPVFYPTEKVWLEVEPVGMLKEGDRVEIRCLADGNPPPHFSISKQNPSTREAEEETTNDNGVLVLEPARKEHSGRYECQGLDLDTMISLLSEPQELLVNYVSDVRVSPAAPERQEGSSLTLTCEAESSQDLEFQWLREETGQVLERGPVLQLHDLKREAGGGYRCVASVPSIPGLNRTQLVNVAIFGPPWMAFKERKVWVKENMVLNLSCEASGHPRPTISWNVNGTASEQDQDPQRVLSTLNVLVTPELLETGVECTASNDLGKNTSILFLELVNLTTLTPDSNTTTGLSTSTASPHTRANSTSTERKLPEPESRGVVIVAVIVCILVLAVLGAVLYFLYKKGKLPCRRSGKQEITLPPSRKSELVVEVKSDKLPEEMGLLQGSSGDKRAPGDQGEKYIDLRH"},
  "source": "paper PMC9590138",
  "target": "integrin αvβ3 expressed in CHO cells (UniProt P06756)",
  "experiment": "co-IP; mock or αvβ3 expressing CHO cells, treated or not with blocking anti-αvβ3 antibody, sCD146 added for 1 h at 37°; immunoprecipitation with anti-αvβ3 antibody, blot for CD146; only the binder purified",
  "note": "These are yes or no findings as the source states them, for the method shown. Binding seen in cells or lysates may run through a third protein. Binding can be weak; no strength is given.",
  "data": [
    {"substance": "recombinant soluble CD146 (from UniProt P43121) (ligand)", "values": [
      {"measurement": "binding", "result": "binds"}
    ]}
  ]
}
